For part of these data: Where cells or extracts were used, other partners may take part. For part of these data: The exact form of at least one protein or probe is not confirmed.

Chains of the proteins cited; added tags and fusions are not shown. Lines headed by an entry give the natural chain unless they say otherwise; changes in a name come on top.
UniProt Q04609: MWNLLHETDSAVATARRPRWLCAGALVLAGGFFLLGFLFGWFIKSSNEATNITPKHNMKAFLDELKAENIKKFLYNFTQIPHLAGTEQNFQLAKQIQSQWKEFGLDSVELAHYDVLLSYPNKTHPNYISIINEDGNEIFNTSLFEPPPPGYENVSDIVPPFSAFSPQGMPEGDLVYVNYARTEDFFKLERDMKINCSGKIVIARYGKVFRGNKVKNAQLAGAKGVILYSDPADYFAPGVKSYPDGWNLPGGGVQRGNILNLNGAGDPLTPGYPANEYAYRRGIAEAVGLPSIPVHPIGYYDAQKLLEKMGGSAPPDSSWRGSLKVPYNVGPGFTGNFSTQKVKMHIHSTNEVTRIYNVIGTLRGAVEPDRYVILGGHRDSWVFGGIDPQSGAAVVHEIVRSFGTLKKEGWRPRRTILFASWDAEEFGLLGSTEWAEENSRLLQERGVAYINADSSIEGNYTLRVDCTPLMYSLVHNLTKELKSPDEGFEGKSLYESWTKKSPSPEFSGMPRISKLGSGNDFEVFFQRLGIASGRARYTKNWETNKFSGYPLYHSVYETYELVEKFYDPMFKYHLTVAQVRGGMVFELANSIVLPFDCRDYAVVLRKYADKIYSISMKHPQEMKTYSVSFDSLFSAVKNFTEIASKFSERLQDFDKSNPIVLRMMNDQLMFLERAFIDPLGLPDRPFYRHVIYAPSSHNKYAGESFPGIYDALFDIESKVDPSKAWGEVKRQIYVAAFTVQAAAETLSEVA

The target in data set [1] is PSMA (prostate specific membrane antigen) extracellular domain (UniProt Q04609). As to the kind of experiment: SELEX. As to conditions: 9 of 10 clones of second SELEX; 37 C; purified recombinant protein; label: Rhodamine or Quasar 570; single-stranded DNA.
Data set [2] has as its target PSMA (prostate specific membrane antigen) on C4-2 and LNCaP cells (UniProt Q04609). As to the kind of experiment: binding assay. As to conditions: fluorescence microscopy, protein on the cell surface, single-stranded DNA.
Data set [3] shares this target. Nature of the data set: flow cytometry. The settings on record: protein on the cell surface, label: Quasar 670 (dA16 strand), Quasar 570 (dT16 strand), folded or branched DNA. A general note: Flow cytometry measures light scatter and fluorescence of single cells or particles in a stream.
Data set [4] concerns the target PSMA (prostate specific membrane antigen) on PSMA-transduced PC3 cells (UniProt Q04609). As to the kind of experiment: binding assay. As to conditions: confocal microscopy; surface binding at 4 C, internalized at 37 C; no binding to PSMA- PC3 cells; presence of alkyl linker not stated; protein on the cell surface; label: Quasar 670 (dA16 strand), Quasar 570 (dT16 strand); folded or branched DNA; variant of PSMA01.

With “GCGTTTTCGCTTTTGCGTTTTGGGTCATCTGCTTACGATAGCAATCGT [PSMA01]”, the selection result in data set [1] is given as “selected”. In addition, the binding result in data set [2] (live C4-2 and LNCaP cells, 1 uM, PBS, 2 h RT, no binding to PSMA- PC3 cells, no significant internalization, label: Rhodamine or Quasar 570) was “binds”.
“GCGTTTTCGCTTTTGCGTTTTGGGTCATCTGCTTACGATAGCAATCGTAAAAAAAAAAAAAAAA / GCGTTTTCGCTTTTGCGTTTTGGGTCATCTGCTTACGATAGCAATCGTTTTTTTTTTTTTTTTT [PSMA01 dimeric aptamer complex (dA16/dT16)]”: the binding result is listed as “binds” in data set [3] (C4-2 cells, greater binding and internalization than monomer, variant of PSMA01); “binds” in data set [4].
With “GCGTTTTCGCTTTTGCGTTTTGGGTCATCTGCTTACGATAGCAATCGTAAAAAAAAAAAAAAAA / GCGTTTTCGCTTTTGCGTTTTGGGTCATCTGCTTACGATAGCAATCGTTTTTTTTTTTTTTTTT [PSMA01 dimeric aptamer complex with alkyl linkers]”, in data set [3] (one alkyl spacer between PSMA01 and each tail), the binding result is listed as “binds”.
For the sequence “GCGTTTTCGCTTTTGCGTTTTGGGTCATCTGCTTACGATAGCAATCGTTTTTTTTTTTTTTTTT [PSMA01-dT16 monomer]”, the binding result in data set [2] (live C4-2 cells, less surface binding than dimer, label: Quasar 570, variant of PSMA01) is “binds”.

The values above are taken from patent publication US20100261781.
